Experimental data from the supplement of paper PMC6414424.
Structures can show the parent of a compound that is named as a salt. ± gives the standard deviation of the averaged measurements. The list shows a part of the results.

The molecules below were run on APPdp1-6 iPSC-derived neurons (assay: pThr231Tau/total Tau ratio Z-score vs DMSO vehicle wells; higher = more pThr231Tau relative to total Tau). Conditions: 5 µM; treatment time 5 days.

Compound | pThr231Tau/total Tau ratio Z-score
Nc1ccc(C(=O)O)cc1 [p-Aminobenzoic acid] | 0.876 ± 0.18
CCN1CCCC(OC(=O)C(c2ccccc2)c2ccccc2)C1 (configuration not stated) [Prestw-1055] | 0.24 ± 0.98
Cc1onc(-c2c(F)cccc2Cl)c1C(=O)N[C@@H]1C(=O)N2[C@@H]1SC(C)(C)[C@@H]2C(=O)O [Prestw-1011] | 1.29 ± 0.12
NCCNCCNCCN [TRIENTINE HYDROCHLORIDE, chelating agent] | 0.47 ± 1.6
CN(C)CCCSC(=N)N [Prestw-983] | -0.414 ± 0.22
O=C(NCCN1CCOCC1)c1ccc(Cl)cc1 [Prestw-353] | 1.2 ± 0.91
CN(C/C=C/c1ccccc1)Cc1cccc2ccccc12 [Prestw-1063] | -0.575 ± 0.018
CN1C(=O)OC(C)(C)C1=O [Prestw-515] | 0.21 ± 0.75
OCCN1CCN(CCCN2c3ccccc3C=Cc3ccccc32)CC1 [Prestw-1456] | -0.257 ± 0.43
C[C@H]1O[C@@H](n2cc(F)c(=O)[nH]c2=O)[C@H](O)[C@@H]1O | 1.53 ± 1.4
C[C@@H](O)[C@H]1C(=O)N2C(C(=O)O)=C(S[C@@H]3CN[C@H](C(=O)N(C)C)C3)[C@H](C)[C@H]12 [Prestw-1106] | 0.0304 ± 1.6
CC(=O)O[C@H]1C[C@@H]2CC[C@@H]3[C@H](CC[C@@]4(C)[C@H]3C[C@H]([N+]3(C)CCCCC3)[C@@H]4OC(C)=O)[C@@]2(C)C[C@@H]1N1CCCCC1 [Prestw-1359] | 0.692 ± 0.41
Cc1cc(C)cc(OCC2CNC(=O)O2)c1 (configuration not stated) [METAXALONE    Therap cat: skeletal muscle relaxant] | 0.198 ± 0.54
CC1(C)O[C@@H]2C[C@H]3[C@@H]4CCC5=CC(=O)CC[C@]5(C)[C@@]4(F)[C@@H](O)C[C@]3(C)[C@]2(C(=O)CCl)O1 [Prestw-655] | 1.25 ± 0.18
C[C@]12C=CC(=O)C=C1CC[C@H]1[C@@H]3C[C@@H](O)[C@](O)(C(=O)CO)[C@@]3(C)C[C@H](O)[C@@]12F [Prestw-120] | 1.77 ± 1.8
C[C@@H]1O[C@@H](OC[C@H]2O[C@@H](Oc3c(-c4ccc(OCCO)c(OCCO)c4)oc4cc(OCCO)cc(O)c4c3=O)[C@H](O)[C@@H](O)[C@@H]2O)[C@H](O)[C@H](O)[C@H]1O | 0.461 ± 0.64
CCN(CC)C(=O)/C(C#N)=C/c1cc(O)c(O)c([N+](=O)[O-])c1 [Prestw-1403] | 0.595 ± 0.17
CC[C@H]1OC(=O)C[C@@H](O)[C@H](C)[C@@H](O[C@@H]2O[C@H](C)[C@@H](O)[C@H](N(C)C)[C@H]2O)[C@@H](CCN2C[C@H](C)C[C@H](C)C2)C[C@@H](C)C(=O)/C=C/C(C)=C/[C@@H]1CO[C@@H]1O[C@H](C)[C@@H](O)[C@@H](OC)[C@H]1OC [TILMICOSIN, antibacterial] | -0.163 ± 0.39
CNCCCC12CCC(c3ccccc31)c1ccccc12 [Prestw-346] | -0.916 ± 0.95
CCCCCC(=O)O[C@]1(C(C)=O)CC[C@H]2[C@@H]3CCC4=CC(=O)CC[C@]4(C)[C@H]3CC[C@@]21C [HYDROXYPROGESTERONE CAPROATE    Therap cat:   Progestogen] | 1.56 ± 1.4
C[C@@H]1C[C@H]2[C@@H]3C[C@H](F)C4=CC(=O)C=C[C@]4(C)[C@@]3(Cl)[C@@H](O)C[C@]2(C)[C@H]1C(=O)COC(=O)C(C)(C)C [Prestw-1119] | 0.899 ± 0.46
CCN(CC)CCNC(=O)c1ccc(NC(C)=O)cc1 | 0.942 ± 0.63
CNC[C@H](O)c1cccc(O)c1 [Phenylephrine] | 1.74 ± 2.8
CNC(=C[N+](=O)[O-])NCCSCc1ccc(CN(C)C)o1 [Prestw-201] | 0.0261 ± 0.82

Compound | pThr231Tau/total Tau ratio Z-score
COC(=O)[C@H]1[C@H]2C[C@@H]3c4[nH]c5cc(OC)ccc5c4CCN3C[C@H]2C[C@@H](OC(=O)c2cc(OC)c(OC)c(OC)c2)[C@@H]1OC [Prestw-875] | -0.788 ± 0.26
N[C@H](Cc1ccccc1)C(=O)O [D-PHENYLALANINE    Therap cat: antidepressant] | 0.509 ± 0.085
CCOC(=O)Nc1ccc2c(c1)N(C(=O)CCN1CCOCC1)c1ccccc1S2 [Prestw-1051] | -0.987 ± 0.75
CN=C(NC#N)NCCSCc1nc[nH]c1C [Prestw-26] | 3.62 ± 2.9
C#C[C@]1(O)CC[C@H]2[C@@H]3CCc4cc(OC)ccc4[C@H]3CC[C@@]21C [Prestw-846] | -0.417 ± 1.4
CC(C)NCC(O)c1ccc(NS(C)(=O)=O)cc1 (configuration not stated) [Prestw-966] | -0.076 ± 0.26
CC(=O)N1CCN(c2ccc(OCC3COC(Cn4ccnc4)(c4ccc(Cl)cc4Cl)O3)cc2)CC1 (configuration not stated) [Prestw-389] | -0.445 ± 0.67
CCN(CC)CCCC(C)Nc1c2ccc(Cl)cc2nc2ccc(OC)cc12 (configuration not stated) [Prestw-318] | -0.519 ± 0.24
O=C(O)P(=O)(O)O [FOSCARNET    Therap cat: antiviral] | 2.2 ± 1.9
CCCCCCCCCCCCCCCC[N+](C)(C)CCN(Cc1ccc(OC)cc1)c1ncccn1 [Prestw-925] | -2.65 ± 0.056
NS(=O)(=O)c1ccc(C(=O)O)cc1 | 1.1 ± 0.64
CO[C@H]1C[C@@H]2CC[C@@H](C)[C@@](O)(O2)C(=O)C(=O)N2CCCC[C@H]2C(=O)O[C@H]([C@H](C)C[C@@H]2CC[C@@H](O)[C@H](OC)C2)CC(=O)[C@H](C)/C=C(\C)[C@@H](O)[C@@H](OC)C(=O)[C@H](C)C[C@H](C)/C=C/C=C/C=C/1C | -0.00798 ± 1.8
CO[C@@]1(NC(=O)C(C(=O)O)c2ccc(O)cc2)C(=O)N2C(C(=O)O)=C(CSc3nnnn3C)CO[C@@H]21 (some centres not stated) [Prestw-819] | -1.01 ± 1.9
C#C[C@]1(O)CC[C@H]2[C@@H]3CCC4=CC(=O)CC[C@@H]4[C@H]3CC[C@@]21C [Prestw-253] | 0.309 ± 0.13
C#C[C@]1(OC(C)=O)CC[C@H]2[C@@H]3CCC4=C[C@@H](OC(C)=O)CC[C@@H]4[C@H]3CC[C@@]21C [Prestw-908] | 0.0101 ± 0.87
C#C[C@]1(OC(C)=O)CC[C@H]2[C@@H]3CCC4=C[C@@H](OC(C)=O)CC[C@@H]4[C@H]3CC[C@@]21C [ETHYNODIOL DIACETATE, progestin] | 1.35 ± 1.4
Nc1ccc(S(=O)(=O)Nc2ncccn2)cc1 [Prestw-23] | 1.1 ± 1.5
Nc1ccc(O)c(C(=O)O)c1 [Prestw-1069] | -0.0608 ± 0.46
CCN(CC)CCOC(=O)C1(c2ccc([N+](=O)[O-])cc2)CCCC1 [Prestw-981] | -0.139 ± 0.36
Clc1ccccc1CN1CCc2sccc2C1 [Prestw-47] | -0.492 ± 0.57
CCC(=O)O[C@H](CC(=O)O)C[N+](C)(C)C [AMINOPENTAMIDE, antispasmodic, antiemetic] | -0.969 ± 0.17
CO[C@@]1(NC(=O)C2SC(=C(C(N)=O)C(=O)O)S2)C(=O)N2C(C(=O)O)=C(CSc3nnnn3C)CS[C@@H]21 (some centres not stated) [Prestw-473] | -0.253 ± 0.92
CN(C)CCCN1c2ccccc2CCc2ccc(Cl)cc21 [Prestw-269] | -2.4
Cc1cc(NC(=O)C2=C(O)c3ccccc3S(=O)(=O)N2C)no1 [Prestw-44] | -1.29 ± 0.62

Compound | pThr231Tau/total Tau ratio Z-score
COC(=O)C1=C(C)NC(C)=C(C(=O)OC)C1c1ccccc1[N+](=O)[O-] [Prestw-63] | -3.68 ± 0.4
CN1CCN(CCCN2c3ccccc3Sc3ccc(S(=O)(=O)N(C)C)cc32)CC1 [Prestw-149] | -0.658 ± 0.76
C[C@@H](c1ncncc1F)[C@](O)(Cn1cncn1)c1ccc(F)cc1F [Prestw-1500] | -0.103 ± 0.69
O=C(O)Cc1ccccc1Nc1c(Cl)cccc1Cl [Prestw-594] | -1.04 ± 0.42
N=c1ccn2c(n1)O[C@H]1[C@H](O)[C@@H](CO)O[C@H]12 | -1.52 ± 0.63
CC(=O)Oc1cc(C(F)(F)F)ccc1C(=O)O [Prestw-528] | -0.285 ± 0.64
CS(=O)(=O)c1ccc([C@@H](O)[C@@H](CO)NC(=O)C(Cl)Cl)cc1 [Prestw-25] | -0.414 ± 0.82
CC(C)Cc1ccc([C@H](C)C(=O)O)cc1 [Prestw-907] | 1.22 ± 1.8
C[C@]12C=CC(=O)C=C1CC[C@@H]1[C@@H]2[C@@H](O)C[C@@]2(C)[C@H]1CC[C@]2(O)C(=O)CO [Prestw-274] | 0.424 ± 0.66
O=c1[nH]cc(F)c(=O)[nH]1 [Prestw-1203] | -0.111 ± 0.25
O=C1C(CC[S+]([O-])c2ccccc2)C(=O)N(c2ccccc2)N1c1ccccc1 (configuration not stated) [Prestw-290] | 0.361 ± 0.44
CC(=O)OC/C=C(C)/C=C/C=C(C)/C=C/C1=C(C)CCCC1(C)C [RETINYL ACETATE    Therap cat: vitamin precursor] | -0.185 ± 0.55
CC(=O)O[C@]1(C(C)=O)CC[C@H]2[C@@H]3C=C(C)C4=CC(=O)CC[C@@H]4[C@H]3CC[C@@]21C [Prestw-1033] | -1.1 ± 0.82
COc1cc2nc(N3CCN(C(=O)C4CCCO4)CC3)nc(N)c2cc1OC (configuration not stated) [Prestw-751] | -1.4 ± 0.38
Oc1ccc(O)cc1 [Arachidonate 12-Lipoxygenase inhibitor] | 0.961 ± 0.69
CCCCC[C@H](O)/C=C/[C@@H]1[C@@H](C/C=C\CCCC(=O)O)[C@@H](O)C[C@H]1O.COC(N)(CO)CO [Prestw-460] | 0.313 ± 0.85
CC1CCC(NC(=O)N(CCCl)N=O)CC1 (configuration not stated) [SEMUSTINE    Therap cat: antineoplastic] | 0.713 ± 0.67
CC1(O)CCOC(=O)C1 (configuration not stated) [Prestw-750] | -0.339 ± 0.75
Nc1ccc(S(=O)(=O)Nc2ccc(Cl)nn2)cc1 [Prestw-715] | 0.136 ± 1.2
CN(C)CCCOc1nn(Cc2ccccc2)c2ccccc12 [Prestw-297] | 0.68 ± 1.3
OC[C@@H](O)[C@@H](O)[C@H](O)[C@@H](O)CO [Sorbitol] | 1.09 ± 0.93
OC[C@@H](O)[C@@H](O)[C@H](O)[C@@H](O)CO [SORBITOL, sweetening agent and humectant] | 0.402 ± 0.53
S=C=Nc1ccc(N=C=S)cc1 | 1.73 ± 1.3
C#C[C@]1(O)CC[C@H]2[C@@H]3[C@H](C)CC4=C(CCC(=O)C4)[C@H]3CC[C@@]21C [Prestw-1181] | -0.746 ± 0.21

Fetched one by one from the entries so far:
Compound | pThr231Tau/total Tau ratio Z-score
CCC(=O)O[C@H](CC(=O)O)C[N+](C)(C)C [AMINOPENTAMIDE, antispasmodic, antiemetic] | -0.969 ± 0.17
CC[C@H]1OC(=O)C[C@@H](O)[C@H](C)[C@@H](O[C@@H]2O[C@H](C)[C@@H](O)[C@H](N(C)C)[C@H]2O)[C@@H](CCN2C[C@H](C)C[C@H](C)C2)C[C@@H](C)C(=O)/C=C/C(C)=C/[C@@H]1CO[C@@H]1O[C@H](C)[C@@H](O)[C@@H](OC)[C@H]1OC [TILMICOSIN, antibacterial] | -0.163 ± 0.39
C#C[C@]1(OC(C)=O)CC[C@H]2[C@@H]3CCC4=C[C@@H](OC(C)=O)CC[C@@H]4[C@H]3CC[C@@]21C [Prestw-908] | 0.0101 ± 0.87
CCOC(=O)Nc1ccc2c(c1)N(C(=O)CCN1CCOCC1)c1ccccc1S2 [Prestw-1051] | -0.987 ± 0.75
